# Record: PubChem BioAssay AID1259308 (NCATS, 2017)
# Aim: 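Genes whose loss raises luciferase production in HEK293 cells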 (primary screen)
# System: human HEK293 embryonic kidney cells stably expressing firefly luciferase (HEK-CMV-Luc2-Hygro)
# Reagent: single siRNA against human genes, 0.8 pmol siRNA per well
# Timing: 72 h
# Detection: 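Luciferase light (ONE-Glo) measured on one replicate plate set and viability (CellTiter-Glo) on the other, scaled to a negative control siRNA, with robust z-scores and luciferase per cell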
# Reading the numbers: total luciferase, z-score and total luciferase, % of control: higher = more reporter protein produced; luciferase per cell, z-score: higher = more reporter output per viable cell; viable cells, % of control: higher = more viable cells
# Rule for the call: 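An siRNA counts as active if its total luciferase robust z-score exceeds 3; genes with two or more such siRNAs out of three were retested with fresh siRNAs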
# Meaning of the calls: active = raised luciferase; inactive = no rise
# The deposit covers about 59,000 reagents; below is an unselected part. About 1,510 of all reagents (2.6%) were called active. 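Calls use total luciferase alone and ignore viability, so some active siRNAs may act by altering cell number.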
Gene,PubChem SID,"total luciferase, z-score","total luciferase, % of control","luciferase per cell, z-score","viable cells, % of control",Call
DNAJC5G (DnaJ heat shock protein family (Hsp40) member C5 gamma),SID160763496,0.326,88.4,0.426,88.3,inactive
DNAJC5G (DnaJ heat shock protein family (Hsp40) member C5 gamma),SID160763497,-0.809,65.8,-0.653,87.3,inactive
DNAJC5G (DnaJ heat shock protein family (Hsp40) member C5 gamma),SID160763498,-0.324,75.4,-0.961,109,inactive
NCAPH (non-SMC condensin I complex subunit H),SID160732763,1.58,113,1.57,83.6,inactive
NCAPH (non-SMC condensin I complex subunit H),SID160736192,-0.944,63.1,-0.726,85.4,inactive
NCAPH (non-SMC condensin I complex subunit H),SID160736193,-0.0704,80.5,-0.24,95.8,inactive
"MROH3P (maestro heat like repeat family member 3, pseudogene)",SID160734036,0.573,93.3,-0.0265,105,inactive
"MROH3P (maestro heat like repeat family member 3, pseudogene)",SID160770168,-0.61,69.8,-0.921,99.3,inactive
"MROH3P (maestro heat like repeat family member 3, pseudogene)",SID160770169,0.519,92.2,0.595,88.1,inactive
"MROH3P (maestro heat like repeat family member 3, pseudogene)",SID160770170,-0.576,70.4,-0.75,95.9,inactive
"MROH3P (maestro heat like repeat family member 3, pseudogene)",SID160770171,2.54,132,3.19,63.8,inactive
"MROH3P (maestro heat like repeat family member 3, pseudogene)",SID160770172,-0.764,66.7,-0.767,91.2,inactive
AKAP6 (A-kinase anchoring protein 6),SID160722293,-1.26,56.9,-0.925,81.2,inactive
AKAP6 (A-kinase anchoring protein 6),SID160722294,-0.373,74.5,-0.536,95.8,inactive
AKAP6 (A-kinase anchoring protein 6),SID160722295,0.988,102,0.767,92.7,inactive
STEAP1 (STEAP family member 1),SID160732884,-0.277,76.4,-1.06,113,inactive
STEAP1 (STEAP family member 1),SID160738182,-0.976,62.5,-1.95,117,inactive
STEAP1 (STEAP family member 1),SID160738183,-0.946,63.1,-1.79,113,inactive
CD274 (CD274 molecule),SID160739129,0.35,88.8,-0.0484,101,inactive
CD274 (CD274 molecule),SID160739130,-0.853,64.9,-1.1,97,inactive
CD274 (CD274 molecule),SID160739131,-0.0449,81,0.126,87.5,inactive
PAFAH1B2P2 (PAFAH1B2 pseudogene 2),SID160725661,1.73,116,1.71,82.8,inactive
PAFAH1B2P2 (PAFAH1B2 pseudogene 2),SID160733833,-0.0563,80.8,-0.216,95.5,inactive
PAFAH1B2P2 (PAFAH1B2 pseudogene 2),SID160768967,4.22,166,3.03,83.4,active
AGTRAP (angiotensin II receptor associated protein),SID160745557,1.56,113,1.09,94.6,inactive
AGTRAP (angiotensin II receptor associated protein),SID160745558,-1.71,47.8,-1.26,74.6,inactive
AGTRAP (angiotensin II receptor associated protein),SID160745559,-0.126,79.4,-0.374,97.9,inactive
CPVL (carboxypeptidase vitellogenic like),SID160741809,-0.0617,80.7,-0.601,106,inactive
CPVL (carboxypeptidase vitellogenic like),SID160741810,0.0764,83.4,-0.259,99.8,inactive
CPVL (carboxypeptidase vitellogenic like),SID160741811,-0.246,77,-1.25,120,inactive
ELOVL4 (ELOVL fatty acid elongase 4),SID160717465,-1.95,43,-2.63,96.1,inactive
ELOVL4 (ELOVL fatty acid elongase 4),SID160717466,-0.577,70.4,-1.41,114,inactive
ELOVL4 (ELOVL fatty acid elongase 4),SID160731806,3.68,155,2.23,96.3,active
BPGM (bisphosphoglycerate mutase),SID160728724,-1.05,61,-1.02,89.2,inactive
BPGM (bisphosphoglycerate mutase),SID160728735,-1.3,56.1,-0.982,81.2,inactive
BPGM (bisphosphoglycerate mutase),SID160728745,-0.677,68.4,-0.892,96.7,inactive
KLHL5 (kelch like family member 5),SID160740018,0.178,85.4,0.166,91.4,inactive
KLHL5 (kelch like family member 5),SID160740019,0.594,93.7,1.31,74.1,inactive
KLHL5 (kelch like family member 5),SID160740020,0.263,87.1,-0.733,118,inactive
